Test [1] deals with WT NUDT21 (Flag-tagged, expressed in KYSE30 cells) (human) (UniProt O43809). In words: proximity ligation; Duolink PLA in KYSE30 cells with anti-Flag (NUDT21) and anti-CPSF6; cells treated with saline, L-lactate (20 mM) or oxamate (20 mM); nuclear foci, n = 50 cells.
Test [2] addresses NUDT21 (in KYSE30 cells, Co-IP of Fig. 4a-e) (human) (UniProt O43809). Nature of the test: co-IP; Co-IP in KYSE30 cells; IP lysis buffer, beads overnight at 4 °C, Western blot; cells treated with L-lactate (20 mM), oxamate (20 mM), acetate (10 mM), β-alanine (100 mM), AARS1-HA, HDAC2 siRNA, or transfected with NUDT21 WT, K23R or K56R plasmids.
Test [3] deals with NUDT21 K23R mutant (expressed in KYSE30 cells) (human) (UniProt O43809). The test is described as above.
In test [4] the target is NUDT21 K56R mutant (expressed in KYSE30 cells) (human) (UniProt O43809). Described as above.
In test [5] the target is WT NUDT21 (Flag-tagged, expressed in KYSE30 cells) (human) (UniProt O43809). The description is as above.
In test [6] the target is lactylated NUDT21 (purified from cells treated with L-lactate) (human) (UniProt O43809). Nature of the test: pull-down; in vitro pull-down of CPSF6 with NUDT21 purified from cells pre-treated with oxamate and then treated with L-lactate or acetate; both purified.
The target of test [7] is NUDT21 (in 293T cells, Co-IP) (human) (UniProt O43809). Nature of the test: co-IP; Co-IP in 293T cells; IP lysis buffer, beads overnight at 4 °C, Western blot.

Protein sequences, listed by entry. Tags and fused reporters are not part of them. Lines headed by an entry give the natural chain unless they say otherwise; changes in a name come on top.
UniProt O43809: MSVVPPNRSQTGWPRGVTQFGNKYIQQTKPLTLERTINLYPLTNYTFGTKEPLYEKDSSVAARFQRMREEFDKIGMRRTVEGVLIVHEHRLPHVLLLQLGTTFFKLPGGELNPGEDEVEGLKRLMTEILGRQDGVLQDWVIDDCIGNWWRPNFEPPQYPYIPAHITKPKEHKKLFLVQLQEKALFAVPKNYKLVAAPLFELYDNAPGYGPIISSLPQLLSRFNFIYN
UniProt Q16630: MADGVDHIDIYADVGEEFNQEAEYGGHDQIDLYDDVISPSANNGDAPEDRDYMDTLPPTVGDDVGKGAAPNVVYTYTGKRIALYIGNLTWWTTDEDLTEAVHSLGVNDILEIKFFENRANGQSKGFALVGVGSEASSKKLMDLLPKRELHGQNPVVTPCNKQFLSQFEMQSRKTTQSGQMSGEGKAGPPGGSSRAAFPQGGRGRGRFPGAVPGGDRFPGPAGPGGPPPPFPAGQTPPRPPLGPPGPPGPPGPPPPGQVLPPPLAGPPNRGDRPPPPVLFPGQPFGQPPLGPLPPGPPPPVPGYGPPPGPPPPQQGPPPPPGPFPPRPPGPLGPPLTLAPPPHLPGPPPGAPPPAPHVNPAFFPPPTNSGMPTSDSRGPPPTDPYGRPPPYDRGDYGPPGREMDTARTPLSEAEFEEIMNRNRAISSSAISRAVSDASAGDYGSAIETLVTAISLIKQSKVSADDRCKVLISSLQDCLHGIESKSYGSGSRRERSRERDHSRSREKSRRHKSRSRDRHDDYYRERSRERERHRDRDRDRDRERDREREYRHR
UniProt Q92769: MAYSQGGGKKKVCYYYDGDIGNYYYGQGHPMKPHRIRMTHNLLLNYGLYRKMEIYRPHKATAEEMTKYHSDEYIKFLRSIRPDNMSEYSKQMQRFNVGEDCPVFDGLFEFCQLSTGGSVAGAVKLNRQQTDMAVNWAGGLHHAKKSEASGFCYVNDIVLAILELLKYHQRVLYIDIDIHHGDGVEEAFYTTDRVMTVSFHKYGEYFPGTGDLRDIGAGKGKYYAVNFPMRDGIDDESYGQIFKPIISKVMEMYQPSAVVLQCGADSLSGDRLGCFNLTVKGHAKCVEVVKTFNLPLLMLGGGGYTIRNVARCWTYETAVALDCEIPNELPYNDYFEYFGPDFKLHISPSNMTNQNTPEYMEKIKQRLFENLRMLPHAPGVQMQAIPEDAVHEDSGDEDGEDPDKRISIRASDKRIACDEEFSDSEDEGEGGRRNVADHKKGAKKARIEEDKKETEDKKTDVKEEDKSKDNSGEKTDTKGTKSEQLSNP

These are yes or no findings as the source states them, for the method shown. For some of these results: Binding seen in cells or lysates may run through a third protein. Some binding calls cover weakened binding; strength is not graded here.

Regarding “CPSF6 (in KYSE30 cells) (from UniProt Q16630 1-551)”, the binding entry in test [1], in test [2], in test [3], in test [4] and in test [5] was “binds” in each case.
With “CPSF6 (purified recombinant protein) (from UniProt Q16630 1-551)”, the binding entry in test [6] is reported as “binds”.
Take “HDAC2 (in 293T cells, Co-IP) (from UniProt Q92769 1-488) (enzyme)”: in test [7], the binding entry is reported as “binds”.

The record behind these values is PMC12116747.
